Experimental data published in article PMC10424871.
No constants are given. Whether binding was seen depends on the method and setting. In cells and extracts the contact can be indirect. Some entries that bind do so weakly or less than the wild type.

By UniProt entry, the sequences of proteins in these tests, tags left out. Where a name states a change or a piece, a line headed by the entry shows the natural chain unless it says otherwise. Chains listed by the source or under a name are the forms on record and can include a tag or linker.
UniProt Q7Z6Z7: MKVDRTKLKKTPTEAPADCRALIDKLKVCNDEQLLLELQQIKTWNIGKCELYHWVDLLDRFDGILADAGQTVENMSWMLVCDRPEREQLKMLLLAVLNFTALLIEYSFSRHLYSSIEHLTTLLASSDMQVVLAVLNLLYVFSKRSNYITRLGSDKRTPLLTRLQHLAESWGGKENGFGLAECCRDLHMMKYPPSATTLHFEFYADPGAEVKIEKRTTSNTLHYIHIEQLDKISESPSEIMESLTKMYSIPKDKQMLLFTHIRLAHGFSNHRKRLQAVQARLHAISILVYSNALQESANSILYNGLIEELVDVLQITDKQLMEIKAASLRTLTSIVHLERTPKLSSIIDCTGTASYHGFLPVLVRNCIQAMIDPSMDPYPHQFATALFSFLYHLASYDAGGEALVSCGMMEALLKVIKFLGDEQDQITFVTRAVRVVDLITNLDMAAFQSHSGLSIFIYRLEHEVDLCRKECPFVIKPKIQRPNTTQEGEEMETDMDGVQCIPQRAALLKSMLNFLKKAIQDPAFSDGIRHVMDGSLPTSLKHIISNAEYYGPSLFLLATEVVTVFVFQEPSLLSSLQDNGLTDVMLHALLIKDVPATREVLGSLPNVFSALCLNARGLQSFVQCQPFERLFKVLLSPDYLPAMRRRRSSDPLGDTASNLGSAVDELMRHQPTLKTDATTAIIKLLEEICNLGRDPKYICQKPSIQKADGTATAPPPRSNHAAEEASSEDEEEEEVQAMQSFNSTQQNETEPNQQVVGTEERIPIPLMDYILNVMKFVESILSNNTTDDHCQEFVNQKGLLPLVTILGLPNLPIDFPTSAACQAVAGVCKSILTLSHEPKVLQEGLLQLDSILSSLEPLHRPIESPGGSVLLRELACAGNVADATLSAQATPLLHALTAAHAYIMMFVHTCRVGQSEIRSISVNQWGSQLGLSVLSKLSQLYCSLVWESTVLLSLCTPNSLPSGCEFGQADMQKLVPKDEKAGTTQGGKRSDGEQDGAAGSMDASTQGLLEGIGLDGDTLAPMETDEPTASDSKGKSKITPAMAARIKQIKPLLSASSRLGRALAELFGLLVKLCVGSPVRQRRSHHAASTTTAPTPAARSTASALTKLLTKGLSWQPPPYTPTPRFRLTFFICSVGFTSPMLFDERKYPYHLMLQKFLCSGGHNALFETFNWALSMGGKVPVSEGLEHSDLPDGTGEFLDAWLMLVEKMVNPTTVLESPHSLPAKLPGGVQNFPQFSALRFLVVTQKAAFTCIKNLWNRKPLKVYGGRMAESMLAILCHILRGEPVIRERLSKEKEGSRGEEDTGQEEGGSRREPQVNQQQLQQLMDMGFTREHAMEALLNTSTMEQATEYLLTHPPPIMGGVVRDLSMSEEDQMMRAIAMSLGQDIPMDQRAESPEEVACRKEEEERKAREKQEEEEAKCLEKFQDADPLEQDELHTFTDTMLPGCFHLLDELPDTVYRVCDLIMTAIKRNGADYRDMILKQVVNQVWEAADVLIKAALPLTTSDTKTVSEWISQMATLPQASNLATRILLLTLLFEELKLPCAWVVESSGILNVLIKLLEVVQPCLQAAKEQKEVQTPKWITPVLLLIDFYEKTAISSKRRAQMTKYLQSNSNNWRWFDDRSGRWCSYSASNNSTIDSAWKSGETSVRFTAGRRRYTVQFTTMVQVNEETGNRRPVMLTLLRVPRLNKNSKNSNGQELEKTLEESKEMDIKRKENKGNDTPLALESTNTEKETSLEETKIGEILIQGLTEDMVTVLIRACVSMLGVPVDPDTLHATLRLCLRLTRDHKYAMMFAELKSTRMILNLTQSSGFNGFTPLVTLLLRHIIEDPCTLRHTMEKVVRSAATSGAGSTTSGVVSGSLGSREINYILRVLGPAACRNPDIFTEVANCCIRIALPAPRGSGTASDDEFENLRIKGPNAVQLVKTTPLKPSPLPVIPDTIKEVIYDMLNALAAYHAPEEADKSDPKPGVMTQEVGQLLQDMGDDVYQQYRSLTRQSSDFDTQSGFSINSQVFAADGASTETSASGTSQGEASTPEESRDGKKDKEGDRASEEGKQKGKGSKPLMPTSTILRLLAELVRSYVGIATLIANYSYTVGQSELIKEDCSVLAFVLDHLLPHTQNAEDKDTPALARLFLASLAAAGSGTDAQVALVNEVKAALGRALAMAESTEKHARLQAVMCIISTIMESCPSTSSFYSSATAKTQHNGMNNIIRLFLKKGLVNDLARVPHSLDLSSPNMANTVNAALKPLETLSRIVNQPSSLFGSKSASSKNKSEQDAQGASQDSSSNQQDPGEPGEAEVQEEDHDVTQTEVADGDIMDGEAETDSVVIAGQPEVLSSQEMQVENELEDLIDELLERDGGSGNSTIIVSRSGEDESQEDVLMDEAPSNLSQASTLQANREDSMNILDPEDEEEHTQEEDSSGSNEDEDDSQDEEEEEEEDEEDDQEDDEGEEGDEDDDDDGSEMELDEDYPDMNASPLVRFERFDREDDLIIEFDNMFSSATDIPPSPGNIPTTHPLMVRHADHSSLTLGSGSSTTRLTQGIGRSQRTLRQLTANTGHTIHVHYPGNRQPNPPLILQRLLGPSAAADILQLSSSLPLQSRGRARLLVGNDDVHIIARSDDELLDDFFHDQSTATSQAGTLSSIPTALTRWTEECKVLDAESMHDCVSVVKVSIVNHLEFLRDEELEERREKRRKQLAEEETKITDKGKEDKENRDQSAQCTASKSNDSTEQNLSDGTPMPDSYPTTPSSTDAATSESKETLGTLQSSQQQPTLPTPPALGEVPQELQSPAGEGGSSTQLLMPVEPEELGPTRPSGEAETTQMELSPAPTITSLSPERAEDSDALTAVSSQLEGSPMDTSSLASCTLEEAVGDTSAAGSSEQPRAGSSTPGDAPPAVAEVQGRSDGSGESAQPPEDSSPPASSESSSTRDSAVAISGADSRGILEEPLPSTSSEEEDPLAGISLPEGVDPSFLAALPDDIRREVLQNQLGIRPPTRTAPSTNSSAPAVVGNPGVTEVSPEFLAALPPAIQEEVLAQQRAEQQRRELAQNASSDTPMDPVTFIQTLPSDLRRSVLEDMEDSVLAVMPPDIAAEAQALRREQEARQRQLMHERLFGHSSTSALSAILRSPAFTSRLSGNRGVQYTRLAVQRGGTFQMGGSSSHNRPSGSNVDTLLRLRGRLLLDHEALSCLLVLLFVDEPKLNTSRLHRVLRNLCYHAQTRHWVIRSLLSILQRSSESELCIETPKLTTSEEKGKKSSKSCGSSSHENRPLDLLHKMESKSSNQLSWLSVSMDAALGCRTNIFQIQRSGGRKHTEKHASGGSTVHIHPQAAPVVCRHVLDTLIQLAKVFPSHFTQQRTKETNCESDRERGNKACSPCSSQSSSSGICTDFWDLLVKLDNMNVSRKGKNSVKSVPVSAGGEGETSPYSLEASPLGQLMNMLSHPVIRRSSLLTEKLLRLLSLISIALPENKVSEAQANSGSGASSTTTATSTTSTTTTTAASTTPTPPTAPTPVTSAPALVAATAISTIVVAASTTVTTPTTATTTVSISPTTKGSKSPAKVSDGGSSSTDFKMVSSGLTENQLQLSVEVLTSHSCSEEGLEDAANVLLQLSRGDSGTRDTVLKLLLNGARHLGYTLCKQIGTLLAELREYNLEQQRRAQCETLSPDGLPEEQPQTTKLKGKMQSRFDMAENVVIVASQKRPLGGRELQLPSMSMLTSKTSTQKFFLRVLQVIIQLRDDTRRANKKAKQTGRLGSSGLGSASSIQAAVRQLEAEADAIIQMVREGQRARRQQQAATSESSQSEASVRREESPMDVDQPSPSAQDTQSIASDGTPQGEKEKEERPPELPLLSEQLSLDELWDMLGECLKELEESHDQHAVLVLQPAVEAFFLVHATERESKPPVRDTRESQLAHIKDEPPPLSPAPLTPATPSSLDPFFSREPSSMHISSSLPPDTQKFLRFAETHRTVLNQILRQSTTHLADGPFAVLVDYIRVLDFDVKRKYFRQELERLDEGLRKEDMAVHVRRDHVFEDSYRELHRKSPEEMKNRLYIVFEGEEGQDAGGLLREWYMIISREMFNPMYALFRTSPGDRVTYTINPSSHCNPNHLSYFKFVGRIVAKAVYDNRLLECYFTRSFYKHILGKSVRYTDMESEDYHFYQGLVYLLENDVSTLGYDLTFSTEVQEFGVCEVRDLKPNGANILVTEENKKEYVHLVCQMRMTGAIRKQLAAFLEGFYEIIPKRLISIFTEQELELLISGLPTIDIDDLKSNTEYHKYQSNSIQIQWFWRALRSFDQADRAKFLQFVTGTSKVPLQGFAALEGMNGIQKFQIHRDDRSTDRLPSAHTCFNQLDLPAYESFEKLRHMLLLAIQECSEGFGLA
FLAG-tagged AMBRA1 (pCMV6-AMBRA1-Myc-DDK) (Q9C0C7-4, form named): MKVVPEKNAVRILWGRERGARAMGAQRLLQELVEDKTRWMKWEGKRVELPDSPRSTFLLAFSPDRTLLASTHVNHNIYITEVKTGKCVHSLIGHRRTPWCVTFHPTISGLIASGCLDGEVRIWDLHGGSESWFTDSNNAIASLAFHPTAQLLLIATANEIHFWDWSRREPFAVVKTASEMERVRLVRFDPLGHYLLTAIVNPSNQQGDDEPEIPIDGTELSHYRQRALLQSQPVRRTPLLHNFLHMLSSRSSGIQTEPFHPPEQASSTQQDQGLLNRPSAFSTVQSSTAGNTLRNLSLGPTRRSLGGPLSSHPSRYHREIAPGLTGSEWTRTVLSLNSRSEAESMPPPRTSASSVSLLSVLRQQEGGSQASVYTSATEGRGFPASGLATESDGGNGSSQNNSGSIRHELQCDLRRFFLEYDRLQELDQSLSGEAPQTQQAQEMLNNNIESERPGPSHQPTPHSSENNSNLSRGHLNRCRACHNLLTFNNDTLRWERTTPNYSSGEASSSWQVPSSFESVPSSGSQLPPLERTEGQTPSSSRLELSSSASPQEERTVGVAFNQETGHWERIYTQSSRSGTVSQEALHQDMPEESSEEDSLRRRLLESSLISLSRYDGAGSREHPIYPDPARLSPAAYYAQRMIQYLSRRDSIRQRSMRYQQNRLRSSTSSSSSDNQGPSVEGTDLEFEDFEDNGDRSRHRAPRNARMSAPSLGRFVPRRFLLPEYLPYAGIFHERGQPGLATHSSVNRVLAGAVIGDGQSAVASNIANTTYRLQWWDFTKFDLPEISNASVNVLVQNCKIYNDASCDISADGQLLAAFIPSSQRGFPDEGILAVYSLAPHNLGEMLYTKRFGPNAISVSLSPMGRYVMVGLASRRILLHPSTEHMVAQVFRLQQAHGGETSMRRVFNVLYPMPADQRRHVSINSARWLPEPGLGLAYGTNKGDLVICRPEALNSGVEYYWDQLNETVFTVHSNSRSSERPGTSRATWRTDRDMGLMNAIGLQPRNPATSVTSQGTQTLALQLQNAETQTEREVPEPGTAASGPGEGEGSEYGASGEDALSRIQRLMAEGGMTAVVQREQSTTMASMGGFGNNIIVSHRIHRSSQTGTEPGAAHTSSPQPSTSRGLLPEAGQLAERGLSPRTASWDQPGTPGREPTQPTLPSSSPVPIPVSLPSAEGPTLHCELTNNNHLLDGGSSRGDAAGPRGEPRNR
UniProt O15205: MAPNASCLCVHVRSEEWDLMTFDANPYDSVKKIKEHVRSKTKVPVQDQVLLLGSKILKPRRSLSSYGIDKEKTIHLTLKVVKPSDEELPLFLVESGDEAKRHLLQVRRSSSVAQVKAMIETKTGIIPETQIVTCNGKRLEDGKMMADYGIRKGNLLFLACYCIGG
HA-FAT10-AV (O15205, form named): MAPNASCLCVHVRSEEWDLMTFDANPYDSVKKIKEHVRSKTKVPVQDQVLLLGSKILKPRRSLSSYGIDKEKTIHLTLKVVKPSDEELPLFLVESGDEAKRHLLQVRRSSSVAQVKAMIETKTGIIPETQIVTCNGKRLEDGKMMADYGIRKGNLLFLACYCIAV

Assays:
[1] = target: HA-tagged N-terminally truncated HUWE1 (HUWE1ΔN, amino acid residues 2474-4374) (UniProt Q7Z6Z7); experiment: co-IP; HEK293 cells transfected with HA-HUWE1ΔN and FLAG-FAT10, with or without TNF for 24 h; cleared lysate (20 mM Tris/HCl pH 7.6, 50 mM NaCl, 10 mM MgCl2, 1% NP-40), IP with anti-HA agarose at 4°C, blot anti-FLAG; samples analysed under non-reducing and reducing (4% β-ME) conditions
[2] = target: FLAG-tagged AMBRA1 (pCMV6-AMBRA1-Myc-DDK) (UniProt Q9C0C7); experiment: co-IP; HEK293 HUWE1-KO cells transfected with AMBRA1-FLAG and His-HUWE1-HECT or His-HUWE1ΔN, without or with tagless FAT10 or FAT10-AV; IP FLAG, blot anti-HUWE1 (ARF-BP1)
[3] = target: FLAG-tagged AMBRA1 (pCMV6-AMBRA1-Myc-DDK) (UniProt Q9C0C7); experiment: co-IP; reverse immunoprecipitation: HEK293 cells transfected with AMBRA1-FLAG and HA-ubiquitin or HA-FAT10; cleared lysate, IP with Anti-FLAG M2 Affinity Gel, blot anti-HA
[4] = target: FLAG-tagged AMBRA1 (pCMV6-AMBRA1-Myc-DDK) (UniProt Q9C0C7); experiment: co-IP; HEK293 wild type cells transfected with AMBRA1-FLAG, with or without TNF and IFN-γ for 24 h (induces endogenous FAT10); IP of AMBRA1-FLAG, blot anti-HUWE1 (ARF-BP1)
HA-FAT10 = HA-FAT10 (UniProt O15205); experiment: co-IP; HEK293 cells transfected with AMBRA1-FLAG and HA-FAT10, HA-FAT10-AV or HA-ubiquitin; cleared lysate, IP with anti-HA agarose, blot anti-FLAG
HA-FAT10-AV = HA-FAT10-AV (UniProt O15205); experiment: as above

Substance: 6His-3xFLAG-tagged FAT10 (from UniProt O15205 1-165)
- binding [1]: binds

Substance: 6His-tagged HUWE1-HECT (amino acid residues 3993-4374) (from UniProt Q7Z6Z7 3993-4374) (domain or fragment)
- binding [2]: binds

Substance: HA-FAT10 (from UniProt O15205 1-165)
- binding [3]: binds

Substance: endogenous HUWE1 (from UniProt Q7Z6Z7 1-4374)
- binding [4]: binds

Substance: FLAG-tagged AMBRA1 (pCMV6-AMBRA1-Myc-DDK) (from UniProt Q9C0C7-4 1-1208)
- binding (HA-FAT10): binds
- binding (HA-FAT10-AV): binds

Substance: 6His-tagged HUWE1ΔN (amino acid residues 2474-4374) (from UniProt Q7Z6Z7 2474-4374) (domain or fragment)
- binding [2]: binds
